Results published in PubChem BioAssay AID1508600 (Functional Genomics Laboratory (NCATS/FGL), 2020).
About 3,700 (7%) of roughly 53,000 sequences were called active.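 Rule for the calls: active = gene knockdowns whose robust z-score for IL-1 alpha signal is at least 2 or at most -2, so actives lie on both sides; inactive = the rest.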 The list shows a part of the results.

Experiment: Components of the Cytosolic LPS Sensing Pathway: Gene Identification via Genome-wide siRNA Screen;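 note: robust z of the log signal after scaling to non-targeting control siRNA wells of the plate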
Conditions: RAW264.7 macrophages, IL-1a HTRF, actives lie on both sides, screened at 100 nM (by protocol), cells primed 5 h with Pam3CSK4 first
Outline: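 Cells (RAW264.7, 1×10^4 per well) were transfected with siRNA at 100 nM and cultured 48h at 37 degrees C. Pam3CSK4 was added for 5 hours; LipidA transfection followed for 24 hour. IL-1a was then measured by HTRF.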

Sequence | z-score
GGUACCAGGGAGUGACAUUTT against Itgae | inactive: -0.833
GGAAGAAAAAUAUGCUUUCTT against Pls3 | active: 2.7
GGUCAUUAUACCAUUGGCATT against Tuba3b | inactive: 0.926
GCUCAUCUUAGACGAGGCCTT against Klhl25 | inactive: 0.0702
CGAGUGUAAAUCCACUUUGTT against 2810004N23Rik | inactive: 0.616
GCUACGUUAAAAGCAAUAATT against Zfp711 | inactive: -0.867
GGUAAAGGUGUAUUCGGGUTT against Ifngr1 | inactive: -0.238
CCCUUCUAUUUGAACAUAUTT against A530032D15Rik | inactive: -0.672
GCUGCUGAUAACAUCCGACTT against Golga5 | inactive: 0.554
GGCAUCCAUGAAAAACUCUTT against Aqp9 | inactive: 0.641
GGAACUAAAUCUUCCAUCCTT against Chit1 | inactive: -1.02
GGCAAUGCCACAUUUAGAUTT against Casr | inactive: 1.87
GGUACCUUAUGUUUACAAUTT against A430010J10Rik | inactive: 0.831
GGUGCCUUCUGUAAACGAGTT against Foxc2 | active: 2.81
GGAGAUAUUUUGCAUACAGTT against Vmn1r11 | inactive: 1.17
GGCAACAGUGAAAGAUGAATT against Acnat2 | inactive: 0.0608
GCCAGUUCCUAUCUGGCUUTT against 4931428L18Rik | inactive: 1.03
GGGUUUGUUUCCAGGACAATT against E130308A19Rik | inactive: 0.334
CGUGUGUGUUAUGAAUCAATT against Tmem161a | inactive: 0.984
GGGCAAGUCCAUCCAAGACTT against Pthlh | inactive: -0.22
CCAGAGGUCUCUAUUAAGATT against Cad | inactive: -0.0939
GCCAUCAUCUGGGUAGUGUTT against Olfr1494 | inactive: 0.459

An excerpt of these results, field by field.
GGUCAUUAUACCAUUGGCATT against Tuba3b
  z-score: inactive: 0.926
GCUCAUCUUAGACGAGGCCTT against Klhl25
  z-score: inactive: 0.0702

The results go on:

Sequence | z-score
GCUCUCAUCAGACUUCGAGTT against Zfp202 | inactive: 0.0887
GGCUUCUAUGUCAUAGGAATT against Olfr351 | inactive: 0.75
CGUGAAAUAGAUGAUACCUTT against Cdc5l | inactive: 0.625
GGGUCAUGUAUAGUUUGUGTT against Dnajc8 | inactive: -0.0942
GGGUACACCUUGCCGAUGUTT against Tmtc3 | inactive: 0.453
GGAACGAACUCAUUAAAACTT against Abhd3 | inactive: -0.736
GGUUGAAUAUUGAAUGGAATT against Ttc39b | inactive: -0.599
GGAUUCCUGCUUAUCAAAUTT against Nutm1 | inactive: 0.221
GCUAGUCAGAAGAAGUACUTT against Actrt2 | inactive: -0.402
GCUCAAUUCGGACAACAAGTT against Smad7 | inactive: -0.594
GGUCACCUUAUAAUUGCCCTT against Btd | active: -2.83
GGUUUCAUGUUCUGAAACUTT against Gprasp1 | inactive: 0.481
GGACACCAGUACCUGAAACTT against Gm20735 | inactive: -1.62
CGGAGAAGUGACGUAUUCUTT against Pcdhga4 | inactive: -0.635
CCAGCAUCUACUGUCUGACTT against Sstr1 | active: 4.2
GCAGAGUAUUUGAUUCUUATT against Edc4 | inactive: 0.414
GGAAAAGGCCAUGAAUAUATT against Mmel1 | inactive: 0.176
GGAACAGAGACGAUACUCUTT against Fmr1nb | inactive: -0.429
GGUCUCCUAUAGCACACAGTT against Itgb4 | inactive: -1.08
GGACAUGAACCUCUUCAAATT against Fads2 | inactive: 0.632
CCAACUUCAUAAGAUGUACTT against Commd3 | inactive: 0.596
GCUAUGUGAAAGGAACCGATT against Prim2 | inactive: -0.63

Sequence | z-score
GGUUUUGUUGUGAGUGUUUTT against Eif1b | inactive: 0.242
GGAAAAACCGUCCAGAUCCTT against Uck2 | inactive: -1.06
GGAGCUCUCGAAGGAUUGUTT against Eda2r | inactive: -0.768
GGAUCUUCGUAGAAUGACATT against Tmem178b | inactive: 0.283
CCUGUGUGUGAAUCUCGUUTT against C1qb | inactive: 1.11
GCAUAACAAAGAGGUUGAATT against Polr3a | inactive: 0.969
GGAUUCUGUGCUUUCCUGGTT against Pomt2 | inactive: -0.77
CCUGAUCCCGGUGUAUCAUTT against Mrpl38 | inactive: -1.01
CCAGAUGAAUGUAACACGCTT against Lipi | inactive: 0.474
GGAUAAGGCCAUCAAGAAGTT against Rps26 | inactive: -0.396
GGAUGAACCACCACAAUUGTT against Olfr1233 | inactive: -1.16
GGGAGAAGAUAUGUUUUUATT against Sc5d | inactive: -0.264
GCUCAUGCCAAGGUACGAUTT against Ints1 | inactive: -0.137
GGGACAAGUGGUUGAAACCTT against Prmt8 | active: -2.01
CGCGGAGUUUCGAAGUGUCTT against Drd4 | active: 3.64
GGUUGCCUCUUAAAUGUUGTT against Nyx | inactive: -0.775
GACUAUCCUACUUACUAUATT against Tmem53 | inactive: 0.367
GGACCUAUACAAGGGAGGUTT against Il1f10 | inactive: 1.17
GGGCCCUUGACCUACCAUUTT against D830044D21Rik | inactive: -0.11
CCAUACUGGCAUACCUUGCTT against Mrgprb8 | inactive: 0.127
GGUACUUUUAUCUUAGCUATT against Paral1 | inactive: 0.0889
CCAAAUUAGCAACAUGGAATT against Deptor | inactive: 0.17

Some of the entries so far, with tabs.
Sequence	z-score
GGGCCCUUGACCUACCAUUTT against D830044D21Rik	inactive: -0.11
CCAUACUGGCAUACCUUGCTT against Mrgprb8	inactive: 0.127
GGUACUUUUAUCUUAGCUATT against Paral1	inactive: 0.0889
CCAAAUUAGCAACAUGGAATT against Deptor	inactive: 0.17

(list continues)

Sequence | z-score
CCAAUGUAAGACACGAUGUTT against Gpr151 | inactive: 1.36
GCAAUAUUUUCCCUAGAUCTT against Vmn1r234 | inactive: -0.357
CGGCACUAAACUUCGUGAGTT against 1700084P21Rik | inactive: -0.969
CGACACAUAUGCUAGCUUGTT against Slc7a5 | inactive: -0.855
GGUUCUGAUAGCUCAAGAGTT against Polr2b | inactive: -1.96
GGCUAAAAGUAGUGAAUGATT against Ccr2 | inactive: -1.73
GCAUUUCGACGCGGCUUUUTT against Snapc1 | inactive: 0.617
GGGUAUUCUUGCUUUAGCUTT against Csnk1g3 | inactive: 0.302
GGAUUCUGCCUGAUCAAUGTT against Rab5if | inactive: -0.951
UACUCGUAUUCUUAAUUGCTT against Acsl1 | inactive: -0.272
CGAGAGUGUGCCAAUAUUGTT against Tyrp1 | inactive: -0.351
GGAUGUGGAAUCAUGCUAUTT against Tnpo3 | active: 2.41
GGUUGGUGUAUUCUGGCAGTT against Herpud2 | inactive: -0.175
GGCAGCUUUCCUAUUGAAUTT against Tex19.1 | inactive: 0.233
GGAACCUCUCAGAUUUUCATT against Zfp599 | inactive: 0.828
GCACCAUGUUCAUCUUUACTT against Tas2r144 | inactive: 0.373
GGUACACAUGAGACAAUAUTT against Whamm | active: -2.18
GGGCUAAUAUACAGAAAUATT against Rrm2b | inactive: -0.126
GCCAAUAAGGAAGCGGAUUTT against Cenpq | inactive: 1.06
GUUACCUCGUGGAAAGCAUTT against Vmn1r43 | inactive: -0.345
GGAAGAUUGUAACUGAUUATT against Cpa4 | inactive: -1.16
CCUGAAUUGGUACCUCACATT against Ugt3a1 | inactive: -0.427

Sequence | z-score
GGCUGAGGUGCUACAUACATT against Ctu1 | inactive: -1.08
CCAAUGCUUCUAGUUAACATT against Olfr155 | inactive: -0.299
GGAAGUAGCUUAUUGUUCUTT against Polr2b | active: -2.69
GCAAUAAGUUGACUGUGGATT against Zxda | inactive: -0.00967
GGUGAUGGAAGAAGAAGGCTT against Stk38 | inactive: -0.53
GGAGCAAGAUGUUUCUGAATT against Wrap53 | inactive: 0.869
GCGACAACUUAAAGACCGGTT against Cand2 | inactive: 0.0878
GGAUGACUCGGAGAACUACTT against Psca | inactive: 1.38
GGAAAUCACAUUGUCCUGCTT against 3010003L21Rik | inactive: 1.13
CGAGAAUACCAAACUCGUGTT against Usp17ld | inactive: -0.255
GCGUGGUUCAGUCAGGUAUTT against Bod1 | inactive: -1.25
GGCUUUAGAGAAAGAAGUATT against Med4 | inactive: 1
GGGCAGGAGAAGGAUUCAUTT against Rit1 | inactive: -0.687
GGACUCCACUUUUGAAAACTT against Cox16 | inactive: -1.06
CGGUAAACAUCAGUAAUGATT against Drd5 | inactive: 0.0608
GCAUCCUCAGCCGUAUAUCTT against Ndufb9 | inactive: 0.577
GGUGUCACCAUUUCAGUGGTT against Lbp | inactive: 0.703
CCUGGAUGCAUGGUUAUUATT against Cyp2ab1 | active: 2.69
